{"source": "the supplement of paper PMC9135407", "system": "primary human hepatic stellate cells (donor 1)", "assay": "percent Bodipy-positive cells; higher = more lipid droplet accumulation", "details": "48 h", "key": {"[1]": {"details": "library stock concentration: 1 mM"}, "[2]": {"details": "library stock concentration: 10 mM"}, "[3]": {"details": "library stock concentration: 3.33 mM"}}, "note": "Where a name gives a salt, the structure may show the parent alone. ± gives the standard deviation of the averaged measurements. The list shows a part of the results. Part of the spread comes from offsets between plates or batches.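 Primary human stellate myofibroblasts activated in culture; inactivation shown by regained lipid droplets. Readout: fraction of Hoechst-counted cells exceeding a per-plate Bodipy threshold, duplicate wells, each plate with DMSO negative and nortriptyline positive controls. Hits: control-normalized score beyond the plate's top-tenth-percentile nortriptyline wells, or among its three best wells. Final well concentrations unstated.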", "data": [{"smiles": "C=C(C)[C@@H]1CCC(C)=C[C@H]1C1=C(O)C(=O)C(CCCCC)=CC1=O", "values": [{"measurement": "percent Bodipy-positive cells", "setting": "[1]", "value": "15.6 ± 3.2", "unit": "%"}]}, {"smiles": "COc1cc([C@@H]2c3cc4c(cc3[C@H](O)[C@H]3COC(=O)[C@H]23)OCO4)cc(OC)c1OC", "note": "[Podophyllotoxin]", "values": [{"measurement": "percent Bodipy-positive cells", "value": "25.4 ± 7.4", "unit": "%"}, {"measurement": "percent Bodipy-positive cells", "setting": "[2]", "value": "67.4 ± 5", "unit": "%"}]}, {"smiles": "COc1cc([C@@H]2c3cc4c(cc3[C@H](O)[C@H]3COC(=O)[C@H]23)OCO4)cc(OC)c1OC", "note": "[Podofilox]", "values": [{"measurement": "percent Bodipy-positive cells", "setting": "library stock concentration: 4.8 mM", "value": "39.45 ± 0.073", "unit": "%"}, {"measurement": "percent Bodipy-positive cells", "setting": "[2]", "value": "75.1 ± 2.4", "unit": "%"}]}, {"smiles": "CCNC1(c2cccs2)CCCCC1=O", "note": "(stereo not drawn) [Tiletamine hydrochloride]", "values": [{"measurement": "percent Bodipy-positive cells", "value": "9.1 ± 4.1", "unit": "%"}]}, {"smiles": "Cc1ccc(O)cc1.Cc1cccc(O)c1.Cc1ccccc1O", "note": "[Cresol]", "values": [{"measurement": "percent Bodipy-positive cells", "setting": "[2]", "value": "5.63 ± 0.42", "unit": "%"}, {"measurement": "percent Bodipy-positive cells", "setting": "library stock concentration: 18.5 mM", "value": "1.54 ± 0.8", "unit": "%"}]}, {"smiles": "CS(=N)(=O)CC[C@H](N)C(=O)O", "note": "(stereo partly drawn) [L-Methionine sulfoximine]", "values": [{"measurement": "percent Bodipy-positive cells", "setting": "[2]", "value": "38.9 ± 4.5", "unit": "%"}]}, {"smiles": "CS(=N)(=O)CC[C@H](N)C(=O)O", "note": "(stereo partly drawn) [Methionine sulfoximine (L)]", "values": [{"measurement": "percent Bodipy-positive cells", "value": "50.3 ± 18", "unit": "%"}]}, {"smiles": "CC[C@H]1[C@@H]2C[C@H]3[C@@H]4N(C)c5ccccc5[C@]45C[C@@H]([C@@H]2[C@H]5O)N3[C@@H]1O", "note": "[Ajmaline]", "values": [{"measurement": "percent Bodipy-positive cells", "value": "42.5 ± 5.6", "unit": "%"}, {"measurement": "percent Bodipy-positive cells", "setting": "[2]", "value": "32.7 ± 16", "unit": "%"}]}, {"smiles": "O=C(CCCN1CCC2(CC1)C(=O)N(Cc1cccc(F)c1)CN2c1ccccc1)c1ccc(F)cc1.O=C(O)/C=C\\C(=O)O", "note": "[3'-Fluorobenzylspiperone maleate]", "values": [{"measurement": "percent Bodipy-positive cells", "setting": "[2]", "value": "65.2 ± 2.9", "unit": "%"}]}, {"smiles": "C[C@@H]1CC[C@H]2[C@@H](C)C(=O)O[C@@H]3O[C@@]4(C)CC[C@@H]1[C@]32OO4", "note": "[Artemisinin]", "values": [{"measurement": "percent Bodipy-positive cells", "value": "30.3 ± 8.1", "unit": "%"}, {"measurement": "percent Bodipy-positive cells", "setting": "[3]", "value": "12.2 ± 1.3", "unit": "%"}, {"measurement": "percent Bodipy-positive cells", "setting": "library stock concentration: 7.1 mM", "value": "10.2 ± 5", "unit": "%"}]}, {"smiles": "CCCCCCCC/C=C\\CCCCCCCC(=O)OC[C@@H](COP(O)(O)=S)OC", "values": [{"measurement": "percent Bodipy-positive cells", "setting": "[1]", "value": "15.4 ± 1", "unit": "%"}]}, {"smiles": "CCC1(c2cccc(O)c2)CCCCN(C)C1", "note": "(stereo not drawn) [Meptazinol hydrochloride]", "values": [{"measurement": "percent Bodipy-positive cells", "value": "23.8 ± 0.57", "unit": "%"}]}, {"smiles": "CCC1(c2cccc(O)c2)CCCCN(C)C1", "note": "(stereo not drawn) [Meptazinol HCl]", "values": [{"measurement": "percent Bodipy-positive cells", "setting": "[3]", "value": "10.1 ± 3.6", "unit": "%"}, {"measurement": "percent Bodipy-positive cells", "setting": "[2]", "value": "40.8 ± 4.2", "unit": "%"}]}, {"smiles": "COc1ccc2c(c1)/C(=C/c1cnc[nH]1)C(=O)N2", "values": [{"measurement": "percent Bodipy-positive cells", "setting": "[3]", "value": "19.7 ± 4.6", "unit": "%"}]}, {"smiles": "Cc1[nH]c2ccc(Cl)cc2c1C1=CCNCC1.Cl", "values": [{"measurement": "percent Bodipy-positive cells", "setting": "[2]", "value": "69.75 ± 0.24", "unit": "%"}]}, {"smiles": "CN1[C@@H](C[C@@H](O)c2ccccc2)CCC[C@H]1C[C@H](O)c1ccccc1", "note": "[Lobelanidine hydrochloride]", "values": [{"measurement": "percent Bodipy-positive cells", "value": "39 ± 3", "unit": "%"}]}, {"smiles": "CCCN(CCC)CCc1ccc(O)c(O)c1", "note": "[Dipropyldopamine hydrobromide]", "values": [{"measurement": "percent Bodipy-positive cells", "setting": "[2]", "value": "39 ± 3", "unit": "%"}]}, {"smiles": "COc1ccc(C[C@H]2NC[C@H](O)[C@H]2OC(C)=O)cc1", "note": "[Anisomycin]", "values": [{"measurement": "percent Bodipy-positive cells", "setting": "[2]", "value": "92.83 ± 0.86", "unit": "%"}]}, {"smiles": "O=C1c2ccccc2C(=O)c2ccccc21", "note": "[Anthraquinone]", "values": [{"measurement": "percent Bodipy-positive cells", "setting": "[2]", "value": "27.6 ± 16", "unit": "%"}]}, {"smiles": "Ic1ccccc1CNC1C2CCN(CC2)C1C(c1ccccc1)c1ccccc1", "note": "[L-703,606 oxalate salt hydrate]", "values": [{"measurement": "percent Bodipy-positive cells", "setting": "[2]", "value": "98.04 ± 0.52", "unit": "%"}]}, {"smiles": "COc1ccc2c(c1)[nH]c1c(C)nccc12", "note": "[Harmine]", "values": [{"measurement": "percent Bodipy-positive cells", "setting": "[1]", "value": "25.1 ± 6.8", "unit": "%"}, {"measurement": "percent Bodipy-positive cells", "setting": "[2]", "value": "87.05 ± 0.27", "unit": "%"}]}, {"smiles": "CC1(C)C(C=C(Cl)Cl)C1C(=O)OCc1cccc(Oc2ccccc2)c1", "note": "(stereo not drawn)", "values": [{"measurement": "percent Bodipy-positive cells", "setting": "[2]", "value": "43.1 ± 3.8", "unit": "%"}]}, {"smiles": "CO[C@H](C/C=C\\C=C\\CC/C=C/C[C@H](C)/C=C/C(=C\\C(=O)O)CC(=O)O)/C(C)=C\\C=C(/C)C(=O)O", "note": "[Bongkrekic acid]", "values": [{"measurement": "percent Bodipy-positive cells", "setting": "[1]", "value": "18.8 ± 7.9", "unit": "%"}]}, {"smiles": "O=[N+]([O-])c1ccc([As](=O)(O)O)cc1", "values": [{"measurement": "percent Bodipy-positive cells", "setting": "[2]", "value": "27.1 ± 3.4", "unit": "%"}]}, {"smiles": "CN(C)NC(=O)CCC(=O)O", "note": "[Daminozide]", "values": [{"measurement": "percent Bodipy-positive cells", "setting": "library stock concentration: 80 uM", "value": "37 ± 0.46", "unit": "%"}, {"measurement": "percent Bodipy-positive cells", "setting": "library stock concentration: 400 uM", "value": "43.2 ± 2.4", "unit": "%"}, {"measurement": "percent Bodipy-positive cells", "setting": "library stock concentration: 2 mM", "value": "40.8 ± 0.9", "unit": "%"}, {"measurement": "percent Bodipy-positive cells", "setting": "[2]", "value": "35.4 ± 5.9", "unit": "%"}]}, {"smiles": "NCCc1c[nH]c2ccc(O)cc12", "note": "[Serotonin HCl]", "values": [{"measurement": "percent Bodipy-positive cells", "setting": "[3]", "value": "5.99 ± 0.99", "unit": "%"}, {"measurement": "percent Bodipy-positive cells", "setting": "[2]", "value": "27.1 ± 8.5", "unit": "%"}]}, {"smiles": "NCCc1c[nH]c2ccc(O)cc12", "note": "[Serotonin hydrochloride]", "values": [{"measurement": "percent Bodipy-positive cells", "value": "31.1 ± 6.9", "unit": "%"}, {"measurement": "percent Bodipy-positive cells", "setting": "[2]", "value": "42.8 ± 0.49", "unit": "%"}]}, {"smiles": "NCCc1c[nH]c2ccc(O)cc12", "note": "[Serotonin]", "values": [{"measurement": "percent Bodipy-positive cells", "setting": "[2]", "value": "4.87 ± 1.1", "unit": "%"}]}, {"smiles": "CNC(C)[C@H](O)c1ccccc1", "note": "(stereo partly drawn) [Ephedrine (1r,2s) hydrochloride]", "values": [{"measurement": "percent Bodipy-positive cells", "setting": "[2]", "value": "13.1 ± 2", "unit": "%"}]}, {"smiles": "CCN(C(C)=O)c1cccc(-c2ccnc3c(C#N)cnn23)c1", "note": "[Zaleplon]", "values": [{"measurement": "percent Bodipy-positive cells", "setting": "[2]", "value": "6.1 ± 0.64", "unit": "%"}]}, {"smiles": "C=C1[C@@H](O)[C@@H]2O[C@]3(CC[C@H](/C=C/[C@@H](C)[C@@H]4CC(C)=C[C@@]5(O[C@H](C[C@@](C)(O)C(=O)O)CC[C@H]5O)O4)O3)CC[C@H]2O[C@@H]1[C@@H](O)C[C@H](C)[C@H]1O[C@@]2(CCCCO2)CC[C@H]1C", "note": "[Okadaic acid]", "values": [{"measurement": "percent Bodipy-positive cells", "setting": "library stock concentration: 600 uM", "value": 100, "unit": "%"}]}, {"smiles": "CCC(COC(=O)c1cc(OC)c(OC)c(OC)c1)(c1ccccc1)N(C)C", "note": "(stereo not drawn) [Trimebutine]", "values": [{"measurement": "percent Bodipy-positive cells", "setting": "[3]", "value": "18 ± 0.33", "unit": "%"}, {"measurement": "percent Bodipy-positive cells", "setting": "[2]", "value": "28.2 ± 14", "unit": "%"}]}, {"smiles": "C/C=C(\\C)C(=O)N[C@@H](c1ccccc1)[C@@H](O)C(=O)O[C@H]1C[C@@]2(O)[C@@H](OC(=O)c3ccccc3)[C@@H]3[C@]4(OC(C)=O)CO[C@@H]4C[C@H](O)[C@@]3(C)C(=O)[C@H](OC(C)=O)C(=C1C)C2(C)C", "note": "[Cephalomannine]", "values": [{"measurement": "percent Bodipy-positive cells", "setting": "[3]", "value": "13.7 ± 9.2", "unit": "%"}, {"measurement": "percent Bodipy-positive cells", "setting": "[2]", "value": "22.4 ± 3.7", "unit": "%"}]}]}
